This note sets out measurements from US8299238B2, “Steroidogenesis modified cells and methods for screening for endocrine disrupting chemicals” (University of Saskatchewan, priority 2009, dated 2012).

“Also recorded” adds a separate entry of the source.

This data set has as its system H295R/CYP17-KD cells. As to the kind of experiment: Steroid production of CYP17A-KD H295R cells. It is filed as cell-based, human. The conditions noted are these: FIG. 5.
For the molecule `C[C@]12CC[C@H]3[C@@H](CCC4=CC(=O)CC[C@@]43C)[C@@H]1CC[C@@H]2C(=O)CO` [21a Hydroxyprogesterone], the “Production in CYP17A knockdown H295R compared to control” value (shortened to “Production … compared to control”) was “increased production; also recorded: significantly enhanced”.

`C[C@]12CCC(=O)C=C1CC[C@@H]1[C@@H]2CC[C@]2(C)C(=O)CC[C@@H]12` [Androstenedione]: the “Production … compared to control” value is “less production; also recorded: significantly reduced”.

In the case of `C[C@]12CC[C@H]3[C@@H](CCC4=CC(=O)CC[C@@]43C)[C@@H]1CC[C@@H]2O` [Testosterone (T), Testosterone], the “Production … compared to control” value is on record as “less production”.
